From the supplement of paper PMC12889115
The list shows a part of the results. Values are raw readings; no control value is given beside them.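 First-pass screen: polymyxin B was added at a level that permeabilizes the Salmonella outer membrane while sparing the inner membrane. DMSO wells, with and without polymyxin B, defined maximum growth. Because plates differed from one another, each plate's data were ranked separately and the compounds with the lowest OD600 were carried forward as hits.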

System: Salmonella enterica serovar Typhimurium SL1344
Assay: bacterial growth OD600 after 18 h with compound and polymyxin B; higher = more bacterial growth (less inhibition)
Details: 50 µM, Mueller-Hinton broth

Row | SMILES | bacterial growth OD600 (polymyxin B 1 µg/mL) | bacterial growth OD600 (polymyxin B 0.75 µg/mL)
1 | COc1ccc(CN2CCN(Cc3cccc(C)c3)CC2CCO)cc1C (stereo not given) | 0.917 | 
2 | COCC1CCCN(Cc2ccc3c(c2)CN(C(=O)CCCCc2ccccc2)CCO3)C1 (stereo not given) |  | 0.778
3 | Cc1ccc(CCNC(=O)C2CCC(=O)N(Cc3cccc(F)c3)C2)cc1 (stereo not given) | 0.847 | 
4 | COc1cc(CC2(CCC(=O)NCc3cc4cc(F)ccc4[nH]3)CCC(=O)N2)ccc1F (stereo not given) |  | 0.845
5 | O=C(c1cccc(OC2CCN(Cc3cc4ccccc4o3)CC2)c1)N1CCCC1 | 1.04 | 
6 | Cc1ccccc1CCNC(=O)c1coc(COc2ccc3c(c2)OCO3)n1 | 0.314 | 
7 | COc1ccc(CN2CC[C@@H](N3CCN(c4ccccn4)CC3)[C@H](O)C2)cc1F |  | 0.832
8 | O=C(CCC1CCN(C(=O)CCCc2ccccc2)CC1)Nc1ccccc1 | 0.764 | 
9 | COC(=O)c1ccc(CN2CCN(Cc3ccc(OC)c(C)c3C)C(CCO)C2)cc1 (stereo not given) | 0.902 | 
10 | O=C(CCc1ccccn1)NC1CCCN(CCc2ccccc2)C1 (stereo not given) | 1.04 | 
11 | Cc1nc(CNc2nc3nonc3nc2N2CCSCC2)sc1C |  | 0.77
12 | CS(=O)(=O)Nc1cc(C(=O)NCCCc2cccnc2)c2c(c1)ncn2CCc1ccccc1 |  | 0.8
13 | C/C=C(\C)CN1CCC(N2CCCC(C(=O)NCc3cccnc3)C2)CC1 (stereo not given) | 1.2 | 
14 | CCOc1ccc2nc(N3CCCC3C(=O)NCc3ccccc3-n3cncn3)nc(C)c2c1 (stereo not given) |  | 1
15 | COCCN1C(=O)NC(Cc2ccccc2Cl)(C2CCN(C(=O)c3ccc(C)c(C)c3)CC2)C1=O (stereo not given) |  | 0.816
16 | O=C(CCC1CCCN(C(=O)/C(F)=C/c2ccccc2)C1)N1CCCC1 (stereo not given) |  | 0.671
17 | Cc1cnc(SCCN2CCOCC2)nc1C1CCCN(C(=O)[C@@H]2CSC(=O)N2)C1 (stereo not given in full) |  | 0.772
18 | Cc1cc(C(=O)N2CCCC(N3CCN(Cc4ccc5c(c4)OCO5)CC3)C2)n(C)n1 (stereo not given) |  | 0.799
19 | COc1ccccc1N1CCN(C2CCCN(Cc3cccc(C)n3)C2)CC1 (stereo not given) | 1.26 | 
20 | O=C1CCN(C(=O)CC(c2ccccc2)c2ccccc2Cl)CCN1 (stereo not given) | 0.869 | 
21 | CC(CCCC(C)(C)O)NC1CCN(c2ccc(CC(=O)NCCc3cccc(F)c3)cc2)CC1 (stereo not given) |  | 0.766
22 | CC(=O)c1cccc(OCc2cc(C(=O)N3CCN(C)C(C)C3)n[nH]2)c1 (stereo not given) | 0.98 | 
23 | Cc1oc(-c2ccccc2NS(=O)(=O)Cc2ccccc2)nc1CNC(=O)CC(C)(C)C |  | 0.856
24 | Cn1ccnc1CN1CCc2onc(C(c3ccccc3)c3ccccc3)c2C1 |  | 0.008
25 | Cc1oc(-c2cccc(C(F)(F)F)c2)nc1CN1CCN(c2cnccn2)CC1 |  | 0.595
26 | CCn1nc(C)c(CNC(=O)C2CCC(=O)N(CCc3ccc(OC)cc3)C2)c1C (stereo not given) | 0.924 | 
27 | COCC1CCCCN1C(=O)c1cc(Cn2ccc3ccccc32)[nH]n1 (stereo not given) |  | 0.774
28 | Fc1cccc(CNC2COc3ccccc3C2)c1F (stereo not given) |  | 0.698
29 | C=CCC(=O)N(CC1CCN(Cc2ccccc2C)CC1)CC1CCCO1 (stereo not given) | 1.13 | 
30 | O=C(c1cc[n+]([O-])cc1)N1CCC2(CCCN(CCC3CCCCC3)C2)C1 (stereo not given) | 1.04 | 

Compounds listed so far containing a Cl atom, in the order listed:
Row | SMILES | bacterial growth OD600 (polymyxin B 1 µg/mL) | bacterial growth OD600 (polymyxin B 0.75 µg/mL)
15 | COCCN1C(=O)NC(Cc2ccccc2Cl)(C2CCN(C(=O)c3ccc(C)c(C)c3)CC2)C1=O (stereo not given) |  | 0.816
20 | O=C1CCN(C(=O)CC(c2ccccc2)c2ccccc2Cl)CCN1 (stereo not given) | 0.869 | 
